Data source: PubChem BioAssay AID1224828 (NIAID, 2016)

Screen: 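Knock-downs that increase or decrease LPS-induced p65 nuclear translocation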 (primary screen)
Cell system: mouse RAW264.7 G9 macrophage reporter cells (GFP-p65, Tnf promoter-mCherry)
Reagents: siRNA pool against mouse genes, 100 nM
Timing: 2 days siRNA transfection, then 40 min LPS before fixation
Treatment: LPS (Salmonella minnesota R595) at 10 ng/ml
Measured: 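Imaged p65 nuclear translocation ratio, normalised to the plate median, converted to robust z-scores and averaged across two replicates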
Direction: p65 translocation robust z-score: higher = more nuclear NF-kappaB p65 after LPS than the plate median; nuclear/cytoplasmic p65 ratio: higher = more nuclear NF-kappaB p65
Active means: 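Active if robust z is above 3.3 (negative regulators) or below -1.56, the Tlr4 control median (positive regulators); activity score 50 or more; control wells not called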
Calls: active = hit (p65 shift raised or lowered); inactive = no clear change
The whole screen tested about 17,000 reagents; this is a random part of them. 762 of them (4.5%) were called active. 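Active calls include both raised and lowered p65 entry, mostly lowered; wells with fewer than 50 cells lack a z-score.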 Raw values vary from plate to plate and are shown uncorrected. No sequences are given here.

The opening 2 entries, to show the layout:
Tmem63b (transmembrane protein 63b) [SID315478374] — p65 translocation robust z-score = 0.94; nuclear/cytoplasmic p65 ratio, rep 1 = 1.7; nuclear/cytoplasmic p65 ratio, rep 2 = 2.03; low cell count flag = enough cells to score; call = inactive
Mical3 [SID315477454] — p65 translocation robust z-score = -0.89; nuclear/cytoplasmic p65 ratio, rep 1 = 1.58; nuclear/cytoplasmic p65 ratio, rep 2 = 1.41; low cell count flag = enough cells to score; call = inactive

Main list, repeating the preview:
Tmem63b (transmembrane protein 63b) [SID315478374] — p65 translocation robust z-score = 0.94; nuclear/cytoplasmic p65 ratio, rep 1 = 1.7; nuclear/cytoplasmic p65 ratio, rep 2 = 2.03; low cell count flag = enough cells to score; call = inactive
Mical3 [SID315477454] — p65 translocation robust z-score = -0.89; nuclear/cytoplasmic p65 ratio, rep 1 = 1.58; nuclear/cytoplasmic p65 ratio, rep 2 = 1.41; low cell count flag = enough cells to score; call = inactive
Phf6 (PHD finger protein 6) [SID315474173] — p65 translocation robust z-score = 1.52; nuclear/cytoplasmic p65 ratio, rep 1 = 1.63; nuclear/cytoplasmic p65 ratio, rep 2 = 1.68; low cell count flag = enough cells to score; call = inactive
Cyp7b1 (cytochrome P450, family 7, subfamily b, polypeptide 1) [SID315466252] — p65 translocation robust z-score = -0.05; nuclear/cytoplasmic p65 ratio, rep 1 = 1.45; nuclear/cytoplasmic p65 ratio, rep 2 = 1.39; low cell count flag = enough cells to score; call = inactive
A130014H13Rik (RIKEN cDNA A130014H13 gene) [SID315481135] — p65 translocation robust z-score = 0.2; nuclear/cytoplasmic p65 ratio, rep 1 = 1.44; nuclear/cytoplasmic p65 ratio, rep 2 = 1.52; low cell count flag = enough cells to score; call = inactive
Zfp513 (zinc finger protein 513) [SID315476258] — p65 translocation robust z-score = 0.56; nuclear/cytoplasmic p65 ratio, rep 1 = 1.47; nuclear/cytoplasmic p65 ratio, rep 2 = 1.32; low cell count flag = enough cells to score; call = inactive
Smcp (sperm mitochondria-associated cysteine-rich protein) [SID315467877] — p65 translocation robust z-score = 0.93; nuclear/cytoplasmic p65 ratio, rep 1 = 1.86; nuclear/cytoplasmic p65 ratio, rep 2 = 1.69; low cell count flag = enough cells to score; call = inactive
Ropn1 (ropporin, rhophilin associated protein 1) [SID315475295] — p65 translocation robust z-score = 0.86; nuclear/cytoplasmic p65 ratio, rep 1 = 1.54; nuclear/cytoplasmic p65 ratio, rep 2 = 1.31; low cell count flag = enough cells to score; call = inactive
Tgfbr1 (transforming growth factor, beta receptor I) [SID315469693] — p65 translocation robust z-score = -0.01; nuclear/cytoplasmic p65 ratio, rep 1 = 1.47; nuclear/cytoplasmic p65 ratio, rep 2 = 1.38; low cell count flag = enough cells to score; call = inactive
Saa3 (serum amyloid A 3) [SID315469089] — p65 translocation robust z-score = -0.52; nuclear/cytoplasmic p65 ratio, rep 1 = 1.33; nuclear/cytoplasmic p65 ratio, rep 2 = 1.17; low cell count flag = enough cells to score; call = inactive
Kcnn4 [SID315467598] — nuclear/cytoplasmic p65 ratio, rep 1 = 1.24; nuclear/cytoplasmic p65 ratio, rep 2 = 1.19; low cell count flag = fewer than 50 cells per well; well left out of scoring; call = inactive
Tac4 (tachykinin 4) [SID315475910] — p65 translocation robust z-score = 0.09; nuclear/cytoplasmic p65 ratio, rep 1 = 1.38; nuclear/cytoplasmic p65 ratio, rep 2 = 1.22; low cell count flag = enough cells to score; call = inactive
Nek1 (NIMA (never in mitosis gene a)-related expressed kinase 1) [SID315468130] — p65 translocation robust z-score = 0.19; nuclear/cytoplasmic p65 ratio, rep 1 = 1.65; nuclear/cytoplasmic p65 ratio, rep 2 = 1.45; low cell count flag = enough cells to score; call = inactive
Meig1 (meiosis expressed gene 1) [SID315476436] — p65 translocation robust z-score = 1.29; nuclear/cytoplasmic p65 ratio, rep 1 = 1.91; nuclear/cytoplasmic p65 ratio, rep 2 = 1.74; low cell count flag = enough cells to score; call = inactive
Or14j5 (olfactory receptor family 14 subfamily J member 5) [SID315480519] — p65 translocation robust z-score = -0.94; nuclear/cytoplasmic p65 ratio, rep 1 = 1.47; nuclear/cytoplasmic p65 ratio, rep 2 = 1.29; low cell count flag = enough cells to score; call = inactive
Slc25a17 [SID315469298] — p65 translocation robust z-score = 0.29; nuclear/cytoplasmic p65 ratio, rep 1 = 1.43; nuclear/cytoplasmic p65 ratio, rep 2 = 1.3; low cell count flag = enough cells to score; call = inactive
Slc25a17 [SID315471854] — p65 translocation robust z-score = -0.2; nuclear/cytoplasmic p65 ratio, rep 1 = 1.28; nuclear/cytoplasmic p65 ratio, rep 2 = 1.2; low cell count flag = enough cells to score; call = inactive
Vmn1r190-ps (vomeronasal 1 receptor 190, pseudogene) [SID315479915] — p65 translocation robust z-score = -0.8; nuclear/cytoplasmic p65 ratio, rep 1 = 1.29; nuclear/cytoplasmic p65 ratio, rep 2 = 1.13; low cell count flag = enough cells to score; call = inactive
A930012O16Rik (RIKEN cDNA A930012O16 gene) [SID315478610] — p65 translocation robust z-score = -0.93; nuclear/cytoplasmic p65 ratio, rep 1 = 1.32; nuclear/cytoplasmic p65 ratio, rep 2 = 1.4; low cell count flag = enough cells to score; call = inactive
Vmn1r41 (vomeronasal 1 receptor 41) [SID315476985] — p65 translocation robust z-score = -0.8; nuclear/cytoplasmic p65 ratio, rep 1 = 1.26; nuclear/cytoplasmic p65 ratio, rep 2 = 1.16; low cell count flag = enough cells to score; call = inactive
Siglech (sialic acid binding Ig-like lectin H) [SID315479074] — p65 translocation robust z-score = -1.22; nuclear/cytoplasmic p65 ratio, rep 1 = 1.44; nuclear/cytoplasmic p65 ratio, rep 2 = 1.42; low cell count flag = enough cells to score; call = inactive
